The assay can be described thus: qHTS Assay for Lipid Storage Modulators in Drosophila S3 Cells.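 On cell number change: cells counted by Cell Tracker Red CMTPX staining in the red channel.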 The note with it: BODIPY lipid droplet fluorescence, 18-24 h; for cell number change: measured here: cell count max response, cells fed with added oleic acid. In a few lines: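 Drosophila S3 cells got compounds at several concentrations plus oleic acid (400 uM solution). Laser-scanning cytometry with 488 nm excitation read lipid droplets at 500-530 nm and cells at 575-640 nm. Percent activity was relative to 20 uM Triacsin C.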

[1] abbreviates: measured here: cell number channel AC50, cells fed with added oleic acid.
Where [2] appears, read: measured here: lipid fluorescence (Fed channel) AC50, cells fed with added oleic acid.

Some of the results follow. Shown are side measurements of this screen, not its main read-out; they come without a call. The list favours compounds with an active or inconclusive main result. Words in brackets tell the shape of the fitted curve; partial curves, single points and poor fits give uncertain potencies.

Cell number change and AC50 data for 18 molecules are collected here from PubChem BioAssay AID2685 (National Center for Advancing Translational Sciences (NCATS), 2010).

On to `Cc1c(O)c(C)c2c(c1O)C(=O)C[C@@H](c1ccccc1)O2`, for which the cell number change is -2.15%. The AC50 (as a rule, the midpoint of the concentration-response curve, whichever way the signal moves) under setting [1] was 7.31 µM [falling, partial curve, poor fit]. For `Cc1ccc(CN2C(=O)C3CCCN3c3ccc(C#N)cc32)cc1` (stereo not given), the cell number change was found to be 25%. Under setting [2], the AC50 was 20.6 µM [rising, single point].

Consider `C/C(=N\Nc1ccc(C(F)(F)F)cc1[N+](=O)[O-])C1CC1`, for which the cell number change came out at 2.01%. As for `O=C(CCNC(=O)c1ccc(Br)o1)NCc1ccccn1`, the cell number change is 5.58%. For the same molecule, the half-maximal activity concentration (AC50) under setting [1] is 6.51 µM [falling, partial curve, poor fit]. In addition, under setting [2], the AC50 is 6.51 µM [falling, single point]. As for `CC(CN1CCC(n2nccc2NC(=O)CCCc2ccccc2)CC1)c1ccccc1` (stereo not given), the cell number change was -16.5%. Under setting [2], the AC50 is 0.206 µM [falling, full curve, poor fit]. With `c1ccc(NC2=NCCN2CC2CCCCC2)cc1`, the cell number change was -16.3%. Under setting [1], the AC50 is 4.11 µM [falling, single point]. The concentration at half-maximal activity (AC50) under setting [2] was 4.11 µM [falling, single point].

On to `COc1ccc(CCC(C)NCC(C)c2ccccc2)cc1` (stereo not given), for which the cell number change was -3.97%. Consider `O=C(Nc1cccnc1)Nc1cccc([N+](=O)[O-])c1`, for which the cell number change came out at 15%. Also, the AC50 under setting [2] was 6.51 µM [rising, single point]. As for `COCCNC(=O)c1c(C)cc(C)cc1C`, the cell number change was 23.6%. Moreover, under setting [1], the AC50 is 0.326 µM [falling, single point]. `CCOC(=O)Nc1sc(C)nc1-c1ccccc1`: the cell number change is -1.11%. For `O=C(CCN1C(=O)c2ccccc2S1(=O)=O)Nc1ccccc1O`, the cell number change was determined as 16.9%. Moreover, the AC50 under setting [2] is 0.13 µM [falling, full curve, poor fit].

Consider `O=C(NCc1ccc2c(c1)OCO2)c1ccc(C2SCC(=O)N2Cc2ccco2)cc1` (stereo not given), for which the cell number change was found to be 12.1%. Also, the AC50 under setting [1] was 1.16 µM [rising, single point]. Under setting [2], the AC50 is 0.651 µM [rising, partial curve]. In the case of `Cn1c(-c2c(N)n(CCCc3ccccc3)c3nc4ccccc4nc23)nc2ccccc21`, the cell number change is -5.88%. Moreover, the AC50 under setting [2] is 29.1 µM [falling, single point]. Consider `Cc1ccccc1CN1CCN(S(=O)(=O)c2ccc(Cl)s2)CC1`, for which the cell number change was determined as 11.8%. Further, the AC50 under setting [2] is 18.4 µM [rising, single point].

On to `Cc1ccc(NC(=O)Cn2ccc([N+](=O)[O-])n2)cc1Cl`, for which the cell number change amounted to 31.6%. Besides, under setting [2], the AC50 is 0.0116 µM [falling, full curve, poor fit].

On to `O=C(CCN1CCc2ccccc2C1)Nc1ccc(F)cc1`, for which the cell number change is -10.3%. For the same molecule, the half-maximal activity concentration (AC50) under setting [2] was 1.3 µM [rising, partial curve].

As to `N#C/C(=C\c1ccc(Cl)cc1)c1nc2ccccc2o1`, the cell number change was -22.8%. In addition, the AC50 under setting [2] was 10.3 µM [falling, partial curve].

Turning to `COc1ccc(N(C(=O)CNC(=O)c2ccco2)C(C(=O)NC2CCCC2)c2ccco2)cc1` (stereo not given), the cell number change worked out at 8.75%.
